Experimental data taken from patent US10537650B2, “Molecular probes for multimodality imaging and tracking of stem cells” (University of Massachusetts, priority 2012, dated 2020).
Entries after “also recorded” stand apart in the source; their conditions may differ.

How the values were obtained:
[1] = SPECT/CT, whole body activity and optical imaging of ^111In-MTTI-157 labeled LS174T cells in SKH-1 mice; assay type: in vivo, mouse; conditions: lungs, liver, spleen of SKH-1 mice after tail vein injection of labeled LS174T cells
Protocol: ^111In-MTTI-157 labeled LS174T cells were administered to mice to follow their fate and that of the labels they carried. All animal experiments were approved by the Institutional Animal Care and Use Committee of the university. Male SKH-1 mice about 8 week-old (Charles River Laboratories, Inc., Wilmington, Mass.) were housed under standard conditions and fed white chow (AIN-93G Purified Diet, Harlan, Madison, Wis.). LS174T cells were prepared labeled with ^111In-MTTI-157 as above, and about 5×10^6 cells with 10-12 μCi was injected by tail vein per mouse.
The mice were followed by SPECT/CT imaging (NanoSPECT/CT, Bioscan, Inc., Washington, D.C.) with scans at 30 min, 1 h, 24 h, 72 h, 120 h and 168 h following injection. The SPECT image parameters were 1.0 mm/pixel, 256×256 frame size and 60 sec per projection with 24 projections. Acquisition time was approximately 30 min. During imaging, the animal was anesthetized with 1-2% isoflurane in 1.5 L/min oxygen. A CT scan was acquired prior to the SPECT scan and was performed at standard resolution, using a 45 kVp voltage and 500 milliseconds exposure time. […]
Optical images (Pearl Imager, LiCor Biosciences, Lincoln, Nebr.) were acquired on day 0 and at intervals through day 28. […] After imaging, the lungs, liver and spleen were removed, imaged and then imbedded in OCT in preparation for frozen section fluorescence microscopy. […]

LS-174T cells = test: Culture of ^111In-MTTI-157 labeled LS-174T cells: fluorescence microscopy and gamma counting over 8 days; assay type: cell-based, human
Protocol: The ^111In-MTTI-157 labeled LS-174Tcells were seeded into 12-well plates with about 10^6 cells per well to grow under normal culture conditions to evaluate cell viability, dye stability, and dye partitioning to daughter cells over time. The cell-associated fluorescence was detected from the plates on an Olympus IX 70. Inverted Light Microscope (Olympus America, Inc., NY) using a Cy5 filter on days 0, 3 and 8 after seeding. On each day, samples of cells were collected, counted for cell number with a hemocytometer and radioactivity per 10^6 cells determined by gamma well counter Na (TI) (Cobra II Auto-Gamma, Packard Instrument Co, Downer Grove, Ill.).

SMILES | cell associated MTTI-157 signal in tissue frozen sections (fluorescence microscopy) [1] | retention of fluorescence marker on proliferation (LS-174T cells; cells labeled with 20 μM, days 0, 3 and 8) | cell associated radioactivity (LS-174T cells; days 3-8 in culture, 2, 10 and 20 μM)
CCCCCCCCCCCCCCCCCCCCCCN1C(=CC=CC=CC2=[N+](CCCCCCCCCCCCCCCCCCCCCC)c3ccc(CNC(=O)CN4CCN(CC(=O)O)CCN(CC(=O)O)CCN(CC(=O)O)CC4)cc3C2(C)C)C(C)(C)c2ccccc21.[I-] [MTTI-157] | apparent in lungs through day 14 and in liver through day 28; also recorded: lung thru Day 21 and liver and spleen thru Day 28 | – | –
CCCCCCCCCCCCCCCCCCCCCCN1C(=CC=CC=CC2=[N+](CCCCCCCCCCCCCCCCCCCCCC)c3ccc(CNC(=O)CN4CCN(CC(=O)[O-])CCN(CC(=O)[O-])CCN(CC(=O)[O-])CC4)cc3C2(C)C)C(C)(C)c2ccccc21.[111In+3].[I-] [^111In-MTTI-157] | – | succeeding generations retained the fluorescence marker with no apparent effect on cell viability | did not change at each dye concentration
